Data as given in the supplement of paper PMC10849652.
Some of the results follow.

By UniProt entry, the sequences of proteins in these tests, tags left out. Where a name states a change or a piece, a line headed by the entry shows the natural chain unless it says otherwise.
UniProt Q15527: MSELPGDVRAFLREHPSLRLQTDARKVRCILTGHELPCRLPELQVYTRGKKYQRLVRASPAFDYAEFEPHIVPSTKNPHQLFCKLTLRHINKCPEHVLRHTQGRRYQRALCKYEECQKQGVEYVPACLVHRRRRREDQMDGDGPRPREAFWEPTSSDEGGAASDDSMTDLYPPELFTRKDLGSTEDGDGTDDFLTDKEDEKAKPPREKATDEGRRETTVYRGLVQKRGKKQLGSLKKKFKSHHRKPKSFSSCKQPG
UniProt P61956, whole entry, looked up: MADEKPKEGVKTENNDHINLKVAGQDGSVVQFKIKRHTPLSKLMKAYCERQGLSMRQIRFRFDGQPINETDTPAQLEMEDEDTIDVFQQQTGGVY
UniProt Q8IYB8: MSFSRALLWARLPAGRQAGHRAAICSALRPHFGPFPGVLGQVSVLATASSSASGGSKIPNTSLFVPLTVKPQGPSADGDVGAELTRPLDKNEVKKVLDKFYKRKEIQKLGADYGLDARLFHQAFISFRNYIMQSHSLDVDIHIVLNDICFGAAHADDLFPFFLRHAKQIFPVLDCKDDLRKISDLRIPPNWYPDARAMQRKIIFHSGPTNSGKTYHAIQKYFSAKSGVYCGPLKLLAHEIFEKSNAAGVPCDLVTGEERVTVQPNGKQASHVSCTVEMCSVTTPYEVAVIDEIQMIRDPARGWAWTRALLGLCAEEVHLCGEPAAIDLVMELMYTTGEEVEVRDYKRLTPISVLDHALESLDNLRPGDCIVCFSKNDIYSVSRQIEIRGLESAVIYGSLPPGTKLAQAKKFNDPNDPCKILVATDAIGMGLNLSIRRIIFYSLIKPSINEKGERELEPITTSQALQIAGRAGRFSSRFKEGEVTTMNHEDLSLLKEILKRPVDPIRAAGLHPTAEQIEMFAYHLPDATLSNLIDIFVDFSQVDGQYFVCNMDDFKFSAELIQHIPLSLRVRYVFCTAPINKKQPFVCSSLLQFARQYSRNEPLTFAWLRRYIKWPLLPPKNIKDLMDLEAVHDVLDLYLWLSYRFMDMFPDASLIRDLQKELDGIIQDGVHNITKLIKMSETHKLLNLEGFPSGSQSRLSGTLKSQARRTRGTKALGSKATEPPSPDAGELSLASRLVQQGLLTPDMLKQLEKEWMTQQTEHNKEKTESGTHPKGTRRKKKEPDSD
UniProt Q9NZ72: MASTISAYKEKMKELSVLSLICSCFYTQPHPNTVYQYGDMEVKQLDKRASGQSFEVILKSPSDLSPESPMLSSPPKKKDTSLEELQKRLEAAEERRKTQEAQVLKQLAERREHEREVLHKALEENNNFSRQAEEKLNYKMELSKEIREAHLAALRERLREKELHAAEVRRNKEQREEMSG
UniProt O00506, whole entry, looked up: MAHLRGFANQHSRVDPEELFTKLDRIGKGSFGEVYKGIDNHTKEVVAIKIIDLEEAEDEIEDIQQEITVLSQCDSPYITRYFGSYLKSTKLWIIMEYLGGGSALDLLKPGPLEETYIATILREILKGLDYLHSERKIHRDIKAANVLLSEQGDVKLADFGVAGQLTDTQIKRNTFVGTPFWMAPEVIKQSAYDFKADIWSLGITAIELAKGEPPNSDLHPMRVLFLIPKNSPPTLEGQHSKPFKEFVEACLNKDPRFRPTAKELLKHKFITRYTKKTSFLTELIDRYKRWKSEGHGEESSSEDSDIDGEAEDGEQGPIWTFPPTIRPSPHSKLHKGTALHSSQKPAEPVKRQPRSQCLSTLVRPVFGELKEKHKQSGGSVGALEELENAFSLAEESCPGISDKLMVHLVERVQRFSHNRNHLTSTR
UniProt O94864: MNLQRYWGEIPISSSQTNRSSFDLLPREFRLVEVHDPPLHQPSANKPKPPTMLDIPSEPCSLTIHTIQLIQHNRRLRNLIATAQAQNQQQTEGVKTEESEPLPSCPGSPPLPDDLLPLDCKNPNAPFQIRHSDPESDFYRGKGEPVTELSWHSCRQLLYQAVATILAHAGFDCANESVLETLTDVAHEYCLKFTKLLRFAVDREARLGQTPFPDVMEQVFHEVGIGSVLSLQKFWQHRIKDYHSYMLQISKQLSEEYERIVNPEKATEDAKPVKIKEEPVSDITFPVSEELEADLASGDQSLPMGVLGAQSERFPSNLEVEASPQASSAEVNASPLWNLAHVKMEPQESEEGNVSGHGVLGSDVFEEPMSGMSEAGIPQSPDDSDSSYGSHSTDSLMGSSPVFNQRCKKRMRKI
UniProt Q9Y2Z0: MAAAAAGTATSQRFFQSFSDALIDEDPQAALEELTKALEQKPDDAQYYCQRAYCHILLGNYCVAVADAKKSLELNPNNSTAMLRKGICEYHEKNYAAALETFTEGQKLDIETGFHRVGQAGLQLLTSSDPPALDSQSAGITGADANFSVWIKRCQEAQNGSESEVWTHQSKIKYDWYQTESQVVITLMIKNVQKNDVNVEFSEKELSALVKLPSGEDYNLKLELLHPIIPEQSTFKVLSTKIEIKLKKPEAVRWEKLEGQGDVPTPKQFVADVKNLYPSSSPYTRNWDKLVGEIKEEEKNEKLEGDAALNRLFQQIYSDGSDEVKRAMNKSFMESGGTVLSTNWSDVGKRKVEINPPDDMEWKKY
UniProt P57105: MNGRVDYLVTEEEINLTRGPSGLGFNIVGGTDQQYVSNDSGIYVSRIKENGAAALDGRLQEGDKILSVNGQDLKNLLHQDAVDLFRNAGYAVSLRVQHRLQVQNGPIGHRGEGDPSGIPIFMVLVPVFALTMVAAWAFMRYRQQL
UniProt O75410: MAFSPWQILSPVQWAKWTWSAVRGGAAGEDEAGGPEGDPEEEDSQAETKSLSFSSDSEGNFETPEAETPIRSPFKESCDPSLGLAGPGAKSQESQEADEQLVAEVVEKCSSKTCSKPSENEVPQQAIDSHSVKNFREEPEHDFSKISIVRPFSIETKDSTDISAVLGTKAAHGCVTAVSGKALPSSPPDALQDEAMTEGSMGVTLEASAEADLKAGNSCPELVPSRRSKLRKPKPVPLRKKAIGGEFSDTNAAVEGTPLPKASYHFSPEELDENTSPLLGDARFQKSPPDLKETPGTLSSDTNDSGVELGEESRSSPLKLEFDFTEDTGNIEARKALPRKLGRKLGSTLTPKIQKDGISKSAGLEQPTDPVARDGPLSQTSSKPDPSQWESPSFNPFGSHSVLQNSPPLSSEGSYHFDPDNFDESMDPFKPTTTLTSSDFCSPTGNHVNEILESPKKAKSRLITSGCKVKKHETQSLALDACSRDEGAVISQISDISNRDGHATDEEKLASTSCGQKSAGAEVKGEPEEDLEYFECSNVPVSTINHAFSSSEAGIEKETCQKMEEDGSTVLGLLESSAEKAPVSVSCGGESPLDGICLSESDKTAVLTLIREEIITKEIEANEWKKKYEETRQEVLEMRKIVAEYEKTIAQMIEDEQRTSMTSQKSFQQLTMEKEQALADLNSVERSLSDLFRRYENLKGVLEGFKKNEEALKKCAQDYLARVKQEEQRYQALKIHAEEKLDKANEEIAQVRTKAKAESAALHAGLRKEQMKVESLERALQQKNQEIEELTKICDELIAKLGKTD
UniProt Q8NEM7: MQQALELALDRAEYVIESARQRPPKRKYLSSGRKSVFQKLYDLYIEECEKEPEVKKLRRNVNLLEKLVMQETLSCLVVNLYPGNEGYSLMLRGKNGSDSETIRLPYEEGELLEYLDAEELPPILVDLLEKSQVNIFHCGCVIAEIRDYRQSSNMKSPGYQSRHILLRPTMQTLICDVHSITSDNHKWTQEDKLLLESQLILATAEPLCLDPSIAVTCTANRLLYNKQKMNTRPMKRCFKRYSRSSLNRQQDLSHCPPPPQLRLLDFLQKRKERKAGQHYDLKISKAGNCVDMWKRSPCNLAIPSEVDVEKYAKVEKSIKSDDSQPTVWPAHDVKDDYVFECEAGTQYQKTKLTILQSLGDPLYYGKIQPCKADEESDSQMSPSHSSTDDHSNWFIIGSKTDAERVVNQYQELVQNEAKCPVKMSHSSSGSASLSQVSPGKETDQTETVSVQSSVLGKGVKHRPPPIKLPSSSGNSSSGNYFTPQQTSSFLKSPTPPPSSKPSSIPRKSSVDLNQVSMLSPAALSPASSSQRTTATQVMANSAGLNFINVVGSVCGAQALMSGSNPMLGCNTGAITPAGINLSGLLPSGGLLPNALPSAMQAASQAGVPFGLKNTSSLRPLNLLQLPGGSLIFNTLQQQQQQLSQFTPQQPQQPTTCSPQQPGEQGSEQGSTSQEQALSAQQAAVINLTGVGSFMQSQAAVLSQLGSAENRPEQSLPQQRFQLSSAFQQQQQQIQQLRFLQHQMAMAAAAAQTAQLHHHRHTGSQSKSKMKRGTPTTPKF
UniProt Q15208: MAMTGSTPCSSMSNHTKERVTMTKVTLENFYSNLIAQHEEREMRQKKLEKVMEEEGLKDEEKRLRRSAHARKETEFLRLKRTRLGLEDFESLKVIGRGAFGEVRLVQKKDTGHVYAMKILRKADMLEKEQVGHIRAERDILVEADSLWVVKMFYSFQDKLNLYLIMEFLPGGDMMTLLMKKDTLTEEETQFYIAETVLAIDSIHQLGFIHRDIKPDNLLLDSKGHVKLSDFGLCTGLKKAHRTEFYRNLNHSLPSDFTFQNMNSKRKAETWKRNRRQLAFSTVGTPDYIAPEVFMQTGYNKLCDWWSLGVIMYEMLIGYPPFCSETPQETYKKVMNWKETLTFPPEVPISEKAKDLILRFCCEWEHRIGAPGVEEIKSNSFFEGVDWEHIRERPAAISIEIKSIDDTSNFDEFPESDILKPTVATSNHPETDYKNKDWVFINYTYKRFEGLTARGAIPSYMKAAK
UniProt O60506: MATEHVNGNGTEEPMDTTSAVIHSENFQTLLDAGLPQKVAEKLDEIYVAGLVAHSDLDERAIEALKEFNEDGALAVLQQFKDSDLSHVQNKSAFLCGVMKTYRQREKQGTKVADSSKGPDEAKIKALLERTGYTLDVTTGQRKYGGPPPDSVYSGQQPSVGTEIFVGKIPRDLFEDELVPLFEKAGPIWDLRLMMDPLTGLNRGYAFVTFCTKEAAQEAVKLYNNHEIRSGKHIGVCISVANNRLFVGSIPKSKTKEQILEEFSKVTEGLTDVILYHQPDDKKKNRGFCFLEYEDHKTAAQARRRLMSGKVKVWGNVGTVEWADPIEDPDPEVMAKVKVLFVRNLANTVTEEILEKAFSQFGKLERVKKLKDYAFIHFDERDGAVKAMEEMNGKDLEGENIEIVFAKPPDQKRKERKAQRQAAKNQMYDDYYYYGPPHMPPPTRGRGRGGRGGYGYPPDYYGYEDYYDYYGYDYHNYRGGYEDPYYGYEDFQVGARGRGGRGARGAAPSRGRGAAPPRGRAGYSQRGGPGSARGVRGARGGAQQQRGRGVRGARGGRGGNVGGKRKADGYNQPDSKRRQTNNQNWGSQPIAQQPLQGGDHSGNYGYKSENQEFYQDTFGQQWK
UniProt O75683: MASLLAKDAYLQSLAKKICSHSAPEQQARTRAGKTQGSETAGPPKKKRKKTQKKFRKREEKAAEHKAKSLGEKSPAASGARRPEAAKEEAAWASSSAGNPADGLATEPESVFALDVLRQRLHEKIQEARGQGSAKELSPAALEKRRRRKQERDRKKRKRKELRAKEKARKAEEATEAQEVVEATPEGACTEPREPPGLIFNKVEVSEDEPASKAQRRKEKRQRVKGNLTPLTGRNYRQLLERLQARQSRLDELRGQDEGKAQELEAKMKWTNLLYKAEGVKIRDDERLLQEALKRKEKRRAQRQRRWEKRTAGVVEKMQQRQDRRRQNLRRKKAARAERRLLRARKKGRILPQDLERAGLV
UniProt P53597: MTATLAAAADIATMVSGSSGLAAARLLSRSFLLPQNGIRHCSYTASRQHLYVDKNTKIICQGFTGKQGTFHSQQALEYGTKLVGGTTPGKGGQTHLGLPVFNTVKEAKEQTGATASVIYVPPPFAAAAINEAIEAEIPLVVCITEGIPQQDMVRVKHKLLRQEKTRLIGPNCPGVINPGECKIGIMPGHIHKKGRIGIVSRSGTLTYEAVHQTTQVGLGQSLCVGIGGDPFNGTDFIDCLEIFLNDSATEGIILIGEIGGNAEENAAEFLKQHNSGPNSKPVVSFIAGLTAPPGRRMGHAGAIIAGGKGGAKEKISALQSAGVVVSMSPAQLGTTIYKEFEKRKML
UniProt Q1ZZU3: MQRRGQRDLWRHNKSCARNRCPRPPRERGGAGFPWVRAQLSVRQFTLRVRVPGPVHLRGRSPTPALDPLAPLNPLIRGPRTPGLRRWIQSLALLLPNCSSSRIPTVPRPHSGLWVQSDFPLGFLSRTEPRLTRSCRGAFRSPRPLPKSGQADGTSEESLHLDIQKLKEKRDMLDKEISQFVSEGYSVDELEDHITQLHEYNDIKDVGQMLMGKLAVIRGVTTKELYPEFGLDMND
UniProt Q15526: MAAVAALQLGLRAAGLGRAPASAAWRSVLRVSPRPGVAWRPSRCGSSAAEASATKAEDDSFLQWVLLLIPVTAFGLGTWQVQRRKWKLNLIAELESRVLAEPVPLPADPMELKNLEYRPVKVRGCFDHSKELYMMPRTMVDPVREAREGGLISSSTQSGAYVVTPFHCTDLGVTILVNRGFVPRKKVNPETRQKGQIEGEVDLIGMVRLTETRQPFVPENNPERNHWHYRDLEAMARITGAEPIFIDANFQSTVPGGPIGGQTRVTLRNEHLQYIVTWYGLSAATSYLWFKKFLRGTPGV

Key:
Test in all cases: log2 fold change, soluble protein after heating vs DMSO (PISA); higher = thermal stabilisation; K562 lysate, 10 uM; active = over 0.2 and 3.5 SD of the protein, either way, in both replicates (recomputed)
lapatinib = compound: CS(=O)(=O)CCNCc1ccc(-c2ccc3ncnc(Nc4ccc(OCc5cccc(F)c5)c(Cl)c4)c3c2)o1 [lapatinib]
Method in brief: (§1)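 The values are log-two fold changes in thermal stability compared with solvent controls and come from duplicates. They were obtained by TMTpro 16plex LC-MS/MS, with channel sums equalised, on the supernatant after 21,000xg for 90 min. That supernatant came from crude K562 extract at 1 mg/mL protein treated with 10 μM compound for 30 min, heated for 3 min across 48°C-58°C, pooled and brought to 0.5% NP-40 at 4°C.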

pictilisib = compound: CS(=O)(=O)N1CCN(Cc2cc3nc(-c4cccc5[nH]ncc45)nc(N4CCOCC4)c3s2)CC1 [pictilisib]
Method in brief: as §1

crizotinib = compound: C[C@@H](Oc1cc(-c2cnn(C3CCNCC3)c2)cnc1N)c1c(Cl)ccc(F)c1Cl [crizotinib]
Method in brief: as §1

[1] = compound: C[C@H](C1=CC=C(C=C1)C(=O)NC2=C3C=CNC3=NC=C2)N
Method in brief: as §1

duvelisib = compound: C[C@H](Nc1ncnc2nc[nH]c12)c1cc2cccc(Cl)c2c(=O)n1-c1ccccc1 [duvelisib]
Method in brief: as §1

gandotinib = compound: Cc1cc(Nc2cc(CN3CCOCC3)c3nc(C)c(Cc4ccc(Cl)cc4F)n3n2)n[nH]1 [gandotinib]
Method in brief: as §1

tozasertib = compound: Cc1cc(Nc2cc(N3CCN(C)CC3)nc(Sc3ccc(NC(=O)C4CC4)cc3)n2)n[nH]1 [tozasertib]
Method in brief: as §1

doramapimod = compound: Cc1ccc(-n2nc(C(C)(C)C)cc2NC(=O)Nc2ccc(OCCN3CCOCC3)c3ccccc23)cc1 [doramapimod]
Method in brief: as §1

bafetinib = compound: Cc1ccc(NC(=O)c2ccc(CN3CC[C@H](N(C)C)C3)c(C(F)(F)F)c2)cc1Nc1nccc(-c2cncnc2)n1 [bafetinib]
Method in brief: as §1

[2] = compound: Cc1cccc(CC(=O)N2CCc3c2ccc(-c2cn(C)c4ncnc(N)c24)c3F)n1
Method in brief: as §1

Measured: log2 fold change

SUMO3 isoform 2 (UniProt P55854)
inactive: lapatinib -0.013 | pictilisib -0.012 | crizotinib 0.026 | [1] -0.034 | duvelisib 0.056 | gandotinib 0.005 | tozasertib -0.057 | doramapimod -0.077 | bafetinib 0.016 | [2] 0

SUDS3 (UniProt Q9H7L9)
inactive: lapatinib 0.008 | pictilisib 0.014 | crizotinib -0.035 | [1] -0.08 | duvelisib 0.017 | gandotinib 0.01 | tozasertib 0.001 | doramapimod -0.01 | bafetinib -0.059 | [2] 0.047

SYF2 (UniProt O95926)
inactive: lapatinib 0.026 | pictilisib 0.003 | crizotinib -0.008 | [1] -0.023 | duvelisib -0.144 | gandotinib 0.055 | tozasertib -0.066 | doramapimod 0.04 | bafetinib -0.026 | [2] -0.016

2 entries drawn at random from the list so far:
SUDS3 (UniProt Q9H7L9)
inactive: lapatinib 0.008 | pictilisib 0.014 | crizotinib -0.035 | [1] -0.08 | duvelisib 0.017 | gandotinib 0.01 | tozasertib 0.001 | doramapimod -0.01 | bafetinib -0.059 | [2] 0.047

SYF2 (UniProt O95926)
inactive: lapatinib 0.026 | pictilisib 0.003 | crizotinib -0.008 | [1] -0.023 | duvelisib -0.144 | gandotinib 0.055 | tozasertib -0.066 | doramapimod 0.04 | bafetinib -0.026 | [2] -0.016

Remaining list, next part:

SURF2 (UniProt Q15527)
inactive: lapatinib -0.005 | pictilisib -0.049 | crizotinib -0.031 | [1] -0.008 | duvelisib 0.014 | gandotinib 0.092 | tozasertib -0.061 | doramapimod -0.018 | bafetinib -0.055 | [2] 0.111

STT3A (UniProt P46977)
inactive: lapatinib -0.016 | pictilisib -0.001 | crizotinib -0.001 | [1] -0.065 | duvelisib 0.015 | gandotinib -0.008 | tozasertib 0.017 | doramapimod 0.042 | bafetinib -0.031 | [2] 0.041

SYNJ1 (UniProt O43426)
inactive: lapatinib 0.029 | pictilisib -0.054 | crizotinib -0.02 | [1] -0.065 | duvelisib -0.003 | gandotinib 0.028 | tozasertib 0.049 | doramapimod 0.004 | bafetinib -0.051 | [2] -0.041

SUMO2 (UniProt P61956)
inactive: lapatinib 0.046 | pictilisib 0.05 | crizotinib -0.038 | [1] 0.042 | duvelisib 0.175 | gandotinib 0.015 | tozasertib 0.102 | doramapimod 0.025 | bafetinib 0.034 | [2] 0.025

STX16 isoform 2 (UniProt O14662)
inactive: lapatinib 0.005 | pictilisib -0.036 | crizotinib 0.018 | [1] 0.021 | duvelisib 0.003 | gandotinib 0.002 | tozasertib 0.023 | doramapimod 0.039 | bafetinib -0.027 | [2] 0.026

SUPV3L1 (UniProt Q8IYB8)
inactive: lapatinib -0.025 | pictilisib -0.031 | crizotinib -0.015 | [1] -0.027 | duvelisib -0.004 | gandotinib -0.034 | tozasertib -0.02 | doramapimod 0.018 | bafetinib 0.002 | [2] 0.022

STX6 (UniProt O43752)
inactive: lapatinib 0.043 | pictilisib -0.005 | crizotinib -0.044 | [1] -0.025 | duvelisib -0.025 | gandotinib 0.091 | tozasertib 0.015 | doramapimod 0.01 | bafetinib -0.016 | [2] 0

STMN3 (UniProt Q9NZ72)
inactive: lapatinib -0.017 | pictilisib -0.08 | crizotinib 0.009 | duvelisib -0.023 | tozasertib -0.023 | doramapimod -0.003 | bafetinib 0.041

STK4 (UniProt Q13043)
active: gandotinib 0.504
inactive: lapatinib -0.029 | pictilisib -0.025 | crizotinib 0.382 | [1] -0.104 | duvelisib 0.004 | tozasertib 0.27 | doramapimod -0.027 | bafetinib -0.053 | [2] 0.062

STK25 (UniProt O00506)
inactive: lapatinib -0.058 | pictilisib -0.041 | crizotinib 0.008 | [1] -0.036 | duvelisib -0.055 | gandotinib 0.18 | tozasertib 0.033 | doramapimod -0.081 | bafetinib 0.001 | [2] 0.005

STN1 (UniProt Q9H668)
inactive: lapatinib 0.128 | pictilisib -0.201 | crizotinib -0.068 | [1] -0.235 | gandotinib -0.212 | tozasertib -0.059 | doramapimod -0.101 | bafetinib -0.176 | [2] -0.028

SUPT7L (UniProt O94864)
inactive: lapatinib -0.085 | pictilisib 0.01 | crizotinib -0.144 | [1] 0.028 | duvelisib 0.011 | gandotinib 0.01 | tozasertib 0.036 | doramapimod -0.047 | bafetinib 0.021 | [2] 0.041

SUGT1 (UniProt Q9Y2Z0)
inactive: lapatinib 0.026 | pictilisib -0.008 | crizotinib 0.049 | [1] 0.16 | duvelisib 0.005 | gandotinib -0.024 | tozasertib -0.015 | doramapimod -0.011 | bafetinib 0.032 | [2] -0.094

SUN2 isoform 2 (UniProt Q9UH99)
inactive: lapatinib -0.121 | pictilisib -0.035 | crizotinib 0.065 | [1] 0.071 | duvelisib -0.006 | gandotinib -0.19 | tozasertib 0.492 | doramapimod 0.466 | bafetinib -0.099 | [2] -0.14

SYNJ2BP (UniProt P57105)
inactive: lapatinib 0.007 | pictilisib -0.146 | crizotinib 0.015 | duvelisib -0.029 | tozasertib 0.127 | doramapimod -0.036 | bafetinib 0.057

TACC1 (UniProt O75410)
inactive: lapatinib 0.008 | pictilisib 0.016 | crizotinib -0.002 | [1] -0.001 | duvelisib -0.032 | gandotinib -0.025 | tozasertib 0.009 | doramapimod -0.013 | bafetinib 0.075 | [2] 0.111

SUPT20H isoform 3 (UniProt Q8NEM7)
inactive: lapatinib -0.297 | pictilisib 0.035 | crizotinib -0.246 | duvelisib -0.111 | tozasertib -0.005 | doramapimod -0.047 | bafetinib -0.002

STK38 (UniProt Q15208)
inactive: lapatinib -0.024 | pictilisib 0.061 | crizotinib 0.001 | [1] 0.017 | duvelisib 0.017 | gandotinib 0.159 | tozasertib 0.029 | doramapimod -0.001 | bafetinib -0.104 | [2] -0.071

SYNCRIP isoform 3 (UniProt O60506)
inactive: lapatinib -0.169 | pictilisib -0.094 | crizotinib -0.019 | [1] -0.032 | gandotinib -0.006 | tozasertib -0.017 | doramapimod -0.042 | bafetinib 0.051 | [2] 0.017

STX12 (UniProt Q86Y82)
inactive: lapatinib -0.004 | pictilisib 0.012 | crizotinib 0.017 | [1] -0.027 | duvelisib -0.007 | gandotinib 0.063 | tozasertib -0.027 | doramapimod 0.017 | bafetinib 0.041 | [2] 0.021

SURF6 (UniProt O75683)
inactive: lapatinib -0.021 | pictilisib 0.002 | crizotinib -0.006 | [1] 0 | duvelisib 0.029 | gandotinib 0.004 | tozasertib 0.004 | doramapimod 0.023 | bafetinib -0.03 | [2] -0.034

TAF4 (UniProt O00268)
inactive: lapatinib -0.036 | pictilisib 0.133 | crizotinib -0.005 | duvelisib 0.071 | tozasertib -0.052 | doramapimod 0.108 | bafetinib 0.024

STX10 (UniProt O60499)
inactive: lapatinib -0.062 | pictilisib 0.07 | crizotinib -0.078 | [1] 0.068 | duvelisib 0.002 | gandotinib 0.151 | tozasertib 0.027 | doramapimod -0.013 | bafetinib -0.016 | [2] 0.045

STXBP2 (UniProt Q15833)
inactive: lapatinib -0.024 | pictilisib -0.005 | crizotinib -0.026 | [1] 0.027 | duvelisib -0.009 | gandotinib -0.078 | tozasertib 0.007 | doramapimod 0.013 | bafetinib -0.028 | [2] 0.013

SUCLG1 (UniProt P53597)
inactive: lapatinib 0 | pictilisib -0.038 | crizotinib -0.08 | [1] 0.037 | duvelisib 0.014 | gandotinib -0.066 | tozasertib 0 | doramapimod 0.072 | bafetinib -0.026 | [2] -0.003

SWI5 (UniProt Q1ZZU3)
inactive: lapatinib 0.09 | pictilisib -0.059 | crizotinib 0.027 | [1] 0.026 | duvelisib 0.043 | gandotinib 0.123 | tozasertib 0.014 | doramapimod 0.056 | bafetinib -0.056 | [2] -0.082

STMN4 isoform 2 (UniProt Q9H169)
inactive: lapatinib -0.085 | pictilisib 0.015 | crizotinib 0.15 | [1] -0.004 | duvelisib 0.021 | gandotinib -0.057 | tozasertib -0.014 | doramapimod 0 | bafetinib -0.052 | [2] -0.056

SURF1 (UniProt Q15526)
inactive: lapatinib -0.099 | pictilisib -0.035 | crizotinib -0.077 | [1] 0.085 | duvelisib -0.001 | gandotinib 0.094 | tozasertib 0.014 | doramapimod -0.02 | bafetinib -0.015 | [2] 0.015
